# Results as given in PubChem BioAssay AID445 (National Center for Advancing Translational Sciences (NCATS), 2006).
# The list shows a part of the results. Further columns of the screen follow, without active or inactive calls. The list favours compounds with an active or inconclusive main result. The note in brackets gives the kind of curve behind each potency; many fits are weak.
# Assay: IkB Signaling
# Conditions: ABC-DLBCL IkBa-CBG/CBR dual luciferase ratio (green luciferase fused to IkBa over red control in OCI-Ly3 lymphoma cells), 4 h; measured here: control luc red channel unless noted
# Description: NIH Molecular Libraries Screening Centers Network [MLSCN]
# NIH Chemical Genomics Center [NCGC]
# Nuclear factor kappa-B (NF-kappa-B) plays an important role in normal B cell development and survival. Diffuse large B cell lymphoma (DLBCL) is the most commonly observed type of non-Hodgkin's lymphoma. Gene expression analysis has identified an activated B cell-like subtype of DLBCL (ABC-DLBCL) which expresses known NF-kappa-B target genes. […] However, targets upstream of IKK have been largely unexplored and so nodes upstream of IKK in the NF-kappa-B pathway remain untested due to the lack of chemical probes.
# A cell-sensor assay for I-kappa-B-alpha stabilization was developed with NIH investigator Dr. R. Eric Davis in Dr. Louis M. Staudt's laboratory. The assay uses green (CBG68) and red (CBR) emitting beetle luciferases [Chroma-Glo(TM) developed by Promega Corp.] where the green luciferase is fused to I-kappa-B-alpha and the red luciferase is present in its native state. Both luciferase genes are stably present in the OCI-Ly3 human ABC DLBCL cell line, but their expression is under the control of tetracycline-inducible promoters. Following the addition of doxycycline to induce expression of the luciferases, the green luminescence in control cultures rises only slowly because the CBG fusion partner I-kappa-B-alpha is targeted by IKK activity for rapid degradation. In contrast, green luminescence rises rapidly in the presence of proteasome inhibitors or IKK inhibitors. The rise in red luminescence of CBR is not affected by proteasome or IKK inhibitors, and serves as normalization for cell number and nonspecific effects. Compounds were screened as a concentration-titration series that ranged from 57 uM to 0.7 nM.
# NCGC Assay Protocol Summary:
# Cells were seeded in 1536-well plates at 5000 cells/3ul in IMDM medium containing 0.5% FBS, w/o phenol red, L-glutamine, 25 mM HEPES, 3 mg/ml sodium bicarbonate. After centrifugation for 1 min. at 1000 rpm, 23 nl of compounds or DMSO were delivered to each well using a pin tool. Then 1ul 80ng/ml doxycycline was dispensed into white solid 1536-well plates and the plates were incubated at 37C/5% C02 in a cell incubator for 4 hrs. Then 4 ul Chroma-Glo luminescent substrate mix (Promega) was added to each well. The plate was incubated at R.T. for 10-15 min. The plates were measured on a ViewLux plate reader for green luminescence (540/20 nm filter) and red luminescence (618/8 nm filter). The green and red luminescent signals were corrected for red and green luminescence filter overlap using previously determined filter calibration constants (determined using the procedure outlined in the Promega Technical Manual). The %Activity was determined from the ratio of corrected green/red luminescent values. Green luminescent and ratio %Activity was determined by normalizing to the difference in signal between basal cells (0% Activity) and cells incubated with 10 uM of the proteasome inhibitor MG-132 (100% Activity). Red luminescent %Activity was normalized to the difference between red luminesence in basal cells (0%Activity) and zero luminescence (-100% Activity).
# Concentration-response curves were fitted to the signals arising from the green luminescence (I-kappa-B-alpha-luciferase fusion; IkB-luc) and the red luminescence (unfused luciferase; luc) as well as the calculated ratio. The concentration-effect curves were then classified based on curve quality (r2), response magnitude and degree of measured activity. Compounds were then categorized based on their concentration-response curves for all three datasets (Ikb-luc, luc and ratio).
# Keywords: IKK, I-kappa-B, IkB, IkBa, cytotoxicity, luminescence, MLSMR, MLSCN, NIH Roadmap, qHTS, NCGC
row,Structure (SMILES),AC50
1,CCC(=O)n1nc(NCc2ccccc2OC)nc1NCc1ccccc1OC,"12.6 µM [falling, partial curve]"
2,Cc1ccc(-c2nn(-c3ccc(F)cc3F)c3c2cnc2c(F)cccc23)cc1,"0.0794 µM [rising, full curve]"
3,Cc1ccc(NC(=O)CSc2nc3ccccc3c3nc(CCc4c(C)n[nH]c4C)nn23)c(C)c1,"2.51 µM [rising, partial curve]"
4,Cc1ccc(Cn2nnc3c(=O)n(Cc4cccc(C)c4)cnc32)cc1,"31.6 µM [falling, single point]"
5,Cc1ccc(N2C(=O)CS(=O)(=O)C23C(=O)N(C)c2ccccc23)cc1F (stereo not drawn),"39.8 µM [falling, single point]"
6,Cc1ccc(C)c(Nc2cc(C(=O)NCCCN(C)C3CCCCC3)c3ccccc3n2)c1,"25.1 µM [falling, partial curve]"
7,O=C(Cc1c[nH]c2ccccc12)Nc1nc2ccccc2[nH]1,"12.6 µM [falling, partial curve]"
8,Cc1ccc(N2CCN(C(=O)c3c(C)oc4ncnc(N5CCOCC5)c34)CC2)c(C)c1,"15.8 µM [falling, partial curve]"
9,Cc1ccc(C(=O)Nc2nnc(S(=O)(=O)N3CCN(c4ccc(F)cc4)CC3)s2)cc1,"12.6 µM [falling, single point]"
10,Cc1ccc(CN2CCCn3nc(C(=O)NCc4cc(C)ccc4C)cc3C2=O)cc1,"20 µM [falling, partial curve]"
11,Cc1ccc(CNC(=O)c2cnc3c(-c4ccccc4)c(C)nn3c2C)o1,"39.8 µM [falling, single point]"
12,COCCCNC(=O)c1cnn(-c2ccc(F)cc2F)c1C1CCNCC1,"1 µM [rising, full curve]"
13,Nc1ccc2nc(-c3ccc(O)cc3)sc2c1,"12.6 µM [falling, partial curve]"
14,COc1ccc(NC(=O)CC2C(=O)N(c3ccc(F)cc3)C(=O)N2CCc2sccc2C)cc1 (stereo not drawn),"39.8 µM [falling, single point]"
15,CCOc1ccc(Nc2ncnc3c2cnn3-c2ccc(F)cc2)cc1,"7.94 µM [falling, partial curve, poor fit]"
16,Cc1nc2c(C(=O)NCc3ccccc3Cl)cnn2c(C)c1Cc1ccccc1,"10 µM [falling, partial curve]"
17,Cc1ccc(C)c(-n2cc(-c3ccccc3)nc2SCC(=O)Nc2ccccc2)c1,"20 µM [falling, partial curve, poor fit]"
18,COc1cccc(-c2csc(-c3c(N)c(C(=O)c4ccccc4)n4ccccc34)n2)c1,"12.6 µM [falling, partial curve]"
19,CCOC(=O)c1ccccc1NC(=O)Cn1c(=O)n(CCCC(=O)NCc2ccc3c(c2)OCO3)c(=O)c2ccccc21,"31.6 µM [falling, single point]"
20,CC12CC(NC(=O)N1c1ccc(C(=O)N3CCN(c4ccc(F)cc4)CC3)cc1)c1ccccc1O2 (stereo not drawn),"15.8 µM [falling, partial curve]"
21,Cc1ccc(Cl)cc1N1CCN(C(=O)CCS(=O)(=O)c2cccc3nonc23)CC1,"20 µM [falling, partial curve]"

# Structural class, those above containing a Cl atom
row,Structure (SMILES),AC50
16,Cc1nc2c(C(=O)NCc3ccccc3Cl)cnn2c(C)c1Cc1ccccc1,"10 µM [falling, partial curve]"
21,Cc1ccc(Cl)cc1N1CCN(C(=O)CCS(=O)(=O)c2cccc3nonc23)CC1,"20 µM [falling, partial curve]"

# The results go on.

row,Structure (SMILES),AC50
1,COc1ccc(NC(=O)C(C)n2nc(-c3cc(C)ccc3C)c3c(c2=O)CCCC3)cc1 (stereo not drawn),"15.8 µM [falling, partial curve]"
2,O=C(NCCc1ccccc1)C(=O)NCC(c1ccco1)S(=O)(=O)c1ccccc1 (stereo not drawn),"6.31 µM [rising, single point]"
3,CCOc1ccc(NC(=O)CSc2nnc(-c3ccncc3)n2-c2ccccc2)cc1,"0.251 µM [rising, full curve]"
4,Cc1ccc(C(=O)/C=C/Nc2ccccc2C(N)=O)o1,"6.31 µM [falling, partial curve]"
5,COc1ccc(CNC(=O)c2ccc(CSc3nc4ccncc4n3Cc3ccccc3F)cc2)cc1,"15.8 µM [falling, partial curve]"
6,O=C(CSc1c2c(nc3cc(Cl)ccc13)CCCC2)N1CCN(c2ccccc2F)CC1,"15.8 µM [falling, partial curve]"
7,COc1ccccc1NC(=O)CSc1oc(-c2ccccc2)nc1S(=O)(=O)c1ccc(C)cc1,"12.6 µM [falling, partial curve]"
8,Cc1ccc2nc(-c3cccnc3)c(Nc3ccc(C(C)C)cc3)n2c1,"0.316 µM [rising, partial curve]"
9,O=C(NCCc1ccc(Cl)cc1)C1COc2ccccc2C1 (stereo not drawn),"31.6 µM [falling, single point]"
10,O=C(c1ccc(F)cc1)n1nc(-c2cccnc2)nc1NCc1ccc(F)cc1,"12.6 µM [falling, partial curve]"
11,Cc1nc(-c2ccc(S(=O)(=O)N3CCN(c4cc(Cl)ccc4C)CC3)cc2)co1,"25.1 µM [falling, single point]"
12,Cc1ccc(S(=O)(=O)c2nc(-c3cccs3)oc2SC(C)C)cc1,"3.16 µM [falling, single point]"
13,CCCc1nnc(NC(=O)CN2C(=O)c3ccccc3S2(=O)=O)s1,"12.6 µM [falling, partial curve]"
14,COc1cc(NC(=O)N2CCC3(CC2)Nc2ccccc2-n2cccc23)cc(OC)c1OC,"12.6 µM [falling, partial curve, poor fit]"
15,Cc1nc(SCC(=O)NCc2ccco2)c2c(C)c(C)sc2n1,"31.6 µM [falling, partial curve]"
16,Cc1cc(C)c(NC(=O)CCCn2c(C)c3cnn(-c4ccccc4)c(=O)c3c2C)c(C)c1,"25.1 µM [falling, single point]"
17,CC(C)CC(=O)Nc1nnc(SCc2cc(=O)n3ccccc3n2)s1,"39.8 µM [falling, single point]"
18,CCN(CC)S(=O)(=O)c1ccc2[nH]cc(C(=O)NCCc3ccccc3)c(=O)c2c1,"6.31 µM [falling, partial curve]"
19,COc1cccc2cc(-c3nc(-c4cccs4)cs3)c(=O)oc12,"2 µM [falling, full curve]"
20,CC(=O)C1=C(c2ccc(Br)cc2)N(C(C)=O)n2c(nnc2C2CCCCC2)S1,"12.6 µM [falling, partial curve, poor fit]"
21,COc1cccc(-n2cc(C(=O)OCc3ccc(Cl)cc3)c3ccccc3c2=O)c1,"15.8 µM [rising, partial curve, poor fit]"

row,Structure (SMILES),AC50
1,CCOc1ccc(-n2c(=O)c3c(C)c(C)sc3n(CC(=O)N3CCC(C)CC3)c2=O)cc1,"25.1 µM [falling, partial curve]"
2,Cc1cccc(CNC(=O)c2ccc(C)c(-n3c(C)nc4cccnc43)c2)c1,"5.01 µM [falling, partial curve]"
3,COc1cc(NS(=O)(=O)c2ccc(C)cc2)c2ncccc2c1,"2 µM [rising, partial curve] [measured here: IkB-luc green channel]"
4,CCOC(=O)c1c(C)oc2nc(C)nc(NCc3cccc(Cl)c3)c12,"39.8 µM [falling, single point]"
5,O=C(c1cccc(Cl)c1)n1nc(-c2cccnc2)nc1NCc1ccccc1,"15.8 µM [falling, single point]"
6,O=c1[nH]c(CN2CCc3ccccc32)nc2scc(-c3cccs3)c12,"12.6 µM [falling, partial curve]"
7,Cc1cc(C(=O)COC(=O)c2n[nH]c3ccccc23)c(C)n1C,"3.98 µM [falling, partial curve]"
8,COc1cc(OC)cc(C(=O)Nc2nnc3n2CCS3)c1,"0.2 µM [falling, single point]"
9,O=C(CN1CCC(n2nnc3cc(C(F)(F)F)ccc32)CC1)NCc1cccs1,"39.8 µM [falling, single point]"
10,CCCc1cc(=O)[nH]c(SCc2cc(C(=O)OC)c(C)o2)n1,"25.1 µM [falling, partial curve]"
11,CCc1ccc(NC(=O)c2c(C(=O)Nc3ccccc3)sc3nc(C)cc(=O)n23)cc1,"12.6 µM [falling, partial curve]"
12,COc1cc(-c2noc(C3CC(=O)N(c4cc(C)ccc4C)C3)n2)cc(OC)c1OC (stereo not drawn),"15.8 µM [falling, partial curve]"
13,Cc1ccsc1CCN1C(=O)N(c2ccc(F)cc2)C(=O)C1CC(=O)Nc1ccccc1 (stereo not drawn),"39.8 µM [falling, single point]"
14,CCOc1ccc(NC(=O)Cn2cnc3c(oc4ccccc43)c2=O)cc1,"20 µM [falling, single point]"
15,COc1ccc(-c2nnc(SCC(=O)Nc3cccc(Cl)c3C)nc2-c2ccc(OC)cc2)cc1,"12.6 µM [falling, partial curve]"
16,Cc1cc(C)c(NC(=O)Cn2nnc(C(=O)Nc3ccc(F)cc3F)c2N)c(C)c1,"6.31 µM [rising, single point]"
17,Cc1ccc(CNC(=O)c2ccc3c(c2)nc2n3CCCC2)cc1,"10 µM [falling, partial curve]"
18,Cc1ccc(-c2noc(CCC(=O)N(C)c3ccccc3C)n2)cc1,"12.6 µM [falling, partial curve]"
19,CCc1nn2c(=O)cc(COC(=O)C3CCCCC3)nc2s1,"3.98 µM [rising, single point]"
20,CCn1cc(C(=O)NCc2ccccc2OC)c(=O)c2cc(S(=O)(=O)N3CCCCCC3)ccc21,"10 µM [falling, partial curve]"
21,CC(=O)Nc1ccc(C(=O)c2ccccc2)cc1,"10 µM [falling, partial curve]"
